“Also recorded” adds a separate entry of the source. At least one compound was matched to its structure with a doubt left.
target: recombinant guinea pig liver TGase (Cavia cutleri (Guinea pig), UniProt P08587); assay type: biochemical
Procedure: ENZYME INHIBITION BY COMPOUNDS 14a-c, 14l, 15a, 15d-k, 15m-q, 30a, 30r, 30t, 37a and 38a: For enzymology studies of these compounds, recombinant guinea pig liver TGase was expressed in Escherichia coli and effectively purified (Gillet, S. M. F. G. et al J. N., Prot. Exp. & Purif. 2004, 33, 256).
The mode of inhibition was determined for the representative lead compound 14a through non-linear regression of initial rate data to the Michaelis-Menten equation (FIG. 1).
For the ensuing enzymatic tests, recombinant guinea pig liver TGase was expressed in E. Coli and effectively purified.
Kinetic runs were recorded on a Cary 100 BIO UV-Visible spectrophotometer at 405 nm and 25° C., in a buffer composed of 50 mM CaCl2, 50 μM EDTA and 0.1 M MOPS (pH 7.0). All aqueous solutions were prepared using de-ionized water purified from the Millipore BioCell system. […] Factor XIIIa activity was measured using a coupled-enzyme assay (Day, N.; Keillor, J. W. Anal. Biochem. 1999, 274, 141). Factor XIIIa, was added to a final concentration of 0.89 μg/mL to a pH 8.5 solution (0.1 M Tris-HCl, 5 mM CaCl2 and 10 mM DDT) of 0.5 mM β-NADH, 3.3 mM Na-acetyl-L-lysine methyl ester, 10 mM α-ketoglutaric acid sodium salt and 297 μg/mL glutamate dehydrogenase (GDH).

The chains behind the UniProt entries cited, without tags or fusion partners. Where a name states a change or a piece, a line headed by the entry shows the natural chain unless it says otherwise.
UniProt P08587: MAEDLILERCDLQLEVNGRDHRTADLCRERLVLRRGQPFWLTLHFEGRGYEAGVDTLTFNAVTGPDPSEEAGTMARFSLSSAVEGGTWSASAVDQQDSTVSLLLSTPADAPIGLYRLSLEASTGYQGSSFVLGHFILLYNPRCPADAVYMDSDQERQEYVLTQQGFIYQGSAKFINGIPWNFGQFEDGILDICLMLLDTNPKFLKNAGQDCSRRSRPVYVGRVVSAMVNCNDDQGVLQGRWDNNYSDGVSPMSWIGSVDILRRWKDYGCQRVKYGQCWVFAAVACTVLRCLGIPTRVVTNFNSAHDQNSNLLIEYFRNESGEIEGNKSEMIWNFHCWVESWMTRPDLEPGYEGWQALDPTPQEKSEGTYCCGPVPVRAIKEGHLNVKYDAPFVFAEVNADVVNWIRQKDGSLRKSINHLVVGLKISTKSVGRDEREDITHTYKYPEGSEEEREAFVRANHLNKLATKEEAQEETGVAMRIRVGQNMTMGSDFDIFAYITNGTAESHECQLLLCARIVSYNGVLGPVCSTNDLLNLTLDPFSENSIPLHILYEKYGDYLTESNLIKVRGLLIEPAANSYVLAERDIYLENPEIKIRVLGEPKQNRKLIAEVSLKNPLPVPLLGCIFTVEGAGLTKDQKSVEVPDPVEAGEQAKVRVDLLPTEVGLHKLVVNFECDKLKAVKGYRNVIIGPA

| Structure (SMILES) | TGase inhibitory activity (in words) |
| --- | --- |
| O=C(/C=C/c1ccc([N+](=O)[O-])cc1)c1cn(Cc2c(F)c(F)c(F)c(F)c2F)nn1 [Compound 4i] | loss of activity; also recorded: activity was lost |
| O=C(/C=C/c1ccc([N+](=O)[O-])cc1)n1ccnc1 [Compound 18a, p-Nitrocinnamoyl imidazolyl amide] | Inhibitory activity was observed |
| O=C(/C=C/c1ccc([N+](=O)[O-])cc1)N1CCc2ccccc21 [Compound 25a, p-Nitrocinnamoyl indolinyl amide] | lack of activity |
